Results from PubChem BioAssay AID493014 (National Center for Advancing Translational Sciences (NCATS), 2011).
Some of the results follow. These are further read-outs of the screen, such as a control signal, another cell line or another target. No call is given for them. Compounds called inactive in the main read-out are mostly missing here. Potencies come from curve fits of mixed quality, noted in brackets.

Test: qHTS Assay to Find Inhibitors of Chronic Active B-Cell Receptor Signaling
Settings: ABC-DLBCL IkBa-CBG/CBR reporter, luminescence ratio (green luciferase fused to IkBa over red control in TMD8 lymphoma cells), 4 h
Method in brief: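 Concentration-response series (up to 46 uM) were applied to TMD8 dual-reporter cells for 4 h at 37C with doxycycline. Green/red ratio, after filter-overlap correction, defined %Activity; red signal alone was normalised to basal cells and zero luminescence.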

[1] = measured here: CBR red luminescence, cell number
[2] = measured here: IkBa-CBG green luminescence

**Q.** With `CCOC(=O)c1c(-c2ccccc2)csc1NC(=O)CSc1nnnn1C` as the molecule, how does the AC50 [1] read?
**A.** Its AC50 is 0.112 µM [falling, full curve, poor fit].

**Q.** With `COc1ccc(N2CC(C(=O)Nc3nnc(SCc4cccnc4)s3)CC2=O)cc1` (configuration not stated) as the molecule, how does the AC50 [1] read?
**A.** The AC50 was 1.58 µM [rising, single point].

**Q.** For `CCOC(=O)C1=C(CSc2nc(CC)c(C)cc2C#N)OC(N)=C(C#N)C1c1ccccc1` (configuration not stated), which AC50 [1] is on record?
**A.** The AC50 was 29.1 µM [falling, partial curve, poor fit].

**Q.** Which AC50 [1] does the source give for `CCCCN1C(=O)C(=O)N(c2ccccc2)C1=S` here?
**A.** Its AC50 is 0.411 µM [falling, full curve, poor fit].

**Q.** For `COc1ccc(C(=O)NCC(=O)c2ccccc2)cc1`, which AC50 [1] is on record?
**A.** Its AC50 is 6.31 µM [falling, partial curve, poor fit].

**Q.** Which AC50 [1] does the source give for `COc1cc(C(=O)NCCCNc2nc3cc(C)cc(C)c3cc2C#N)cc(OC)c1OC` here?
**A.** The AC50 was 6.31 µM [rising, full curve, poor fit].

**Q.** With `Cc1c(/C=C/C(=O)c2ccccc2)cnn1C` as the molecule, how does the AC50 [1] read?
**A.** Its AC50 is 12.6 µM [falling, single point].

**Q.** With `Cc1nc([N+](=O)[O-])c(Br)n1CC(=O)c1ccc(Br)cc1` as the molecule, how does the AC50 [1] read?
**A.** The AC50 was 20.6 µM [falling, partial curve].

**Q.** With `NS(=O)(=O)c1cccc(NC(=O)CSc2ncc(C(F)(F)F)cc2Cl)c1` as the molecule, how does the AC50 [1] read?
**A.** The AC50 was 0.259 µM [rising, full curve, poor fit].

**Q.** With `Cc1ccc(C)c(Cn2nnc3c(=O)[nH]c(C4CCN(C(=O)c5cccs5)CC4)nc32)c1` as the molecule, how does the AC50 [1] read?
**A.** The AC50 was 20.6 µM [falling, single point].

**Q.** Which AC50 [1] does the source give for `COc1ccc(CN([C@H](CO)CC(C)C)S(=O)(=O)N(Cc2ccccc2)[C@H](CO)CC(C)C)cc1` here?
**A.** Its AC50 is 18.4 µM [falling, partial curve, poor fit].

**Q.** With `C=CCc1c(C)nc(SC)nc1Nc1ccc(C(C)=O)cc1` as the molecule, how does the AC50 [1] read?
**A.** The AC50 was 22.4 µM [falling, single point].

**Q.** Which AC50 [1] does the source give for `C/C(=N/NC(=O)CNC(=O)C1COc2ccccc2O1)c1ccc2c(c1)OCCO2` (configuration not stated) here?
**A.** The AC50 was 35.5 µM [falling, partial curve, poor fit].

**Q.** Which AC50 [1] does the source give for `CCOC(=O)N1C=CC(C)=C[C@@H]2[C@@H](N3C(=O)c4ccccc4C3=O)C(=O)N21` here?
**A.** Its AC50 is 20.6 µM [rising, partial curve, poor fit].

**Q.** What does the source list for `CC(=O)NC(c1ccco1)c1ccc2cccnc2c1O` (configuration not stated)?
**A.** AC50 [1]: 15.8 µM [falling, partial curve]; AC50 [2]: 11.2 µM [falling, partial curve, poor fit]

**Q.** For `Cc1ccc2scc(N3CCCC(C)C3)c(=O)c2c1` (configuration not stated), which AC50 [1] is on record?
**A.** Its AC50 is 31.6 µM [falling, single point].

**Q.** With `COc1ccc(-n2c(SCC(=O)Nc3ccc(Br)cc3)nc(O)cc2=O)cc1` as the molecule, how does the AC50 [1] read?
**A.** Its AC50 is 35.5 µM [falling, single point].

**Q.** Which AC50 [1] does the source give for `CCN(CC)CCN1C(=O)C(O)=C(C(=O)c2cc3cccc(OC)c3o2)C1c1cccs1` (configuration not stated) here?
**A.** The AC50 was 1.26 µM [rising, full curve].

**Q.** For `CCc1noc(C)c1C(=O)Nc1ccc(-c2nnc3n2CCCCC3)cc1`, which AC50 [1] is on record?
**A.** Its AC50 is 29.1 µM [rising, single point].

**Q.** With `O=[N+]([O-])c1cc([N+](=O)[O-])c2cc3ccccc3nc2c1` as the molecule, how does the AC50 [1] read?
**A.** The AC50 was 2.82 µM [falling, single point].

**Q.** For `CCOc1ccc(C(C)=O)cc1COc1ccc(-c2nnco2)cc1`, which AC50 [1] is on record?
**A.** The AC50 was 15.8 µM [falling, single point].

**Q.** With `CCc1cc(=O)n2[nH]c(C)c(-c3ccc(OC)cc3)c2n1` as the molecule, how does the AC50 [1] read?
**A.** The AC50 was 35.5 µM [falling, single point].

**Q.** For `CN(C)CCCNC(=O)c1cc(Br)ccc1O`, which AC50 [1] is on record?
**A.** Its AC50 is 3.98 µM [rising, partial curve, poor fit].

**Q.** For `O=C(NC1CCCCC1)c1ccc(S(=O)(=O)c2ccccc2)cc1`, which AC50 [1] is on record?
**A.** The AC50 was 3.98 µM [rising, full curve, poor fit].

**Q.** For `COC(=O)C1CCN(C(=O)COc2cc3sc(C)nc3c3sccc23)CC1`, which AC50 [1] is on record?
**A.** Its AC50 is 1.46 µM [falling, partial curve, poor fit].

**Q.** Which AC50 [1] does the source give for `COc1cccc(CN(C)C(=O)C2CCN(S(=O)(=O)c3cccs3)CC2)c1OC` here?
**A.** Its AC50 is 2.59 µM [rising, full curve, poor fit].

**Q.** With `O=S(=O)(N/N=C/c1cn(Cc2ccccc2)c2ccccc12)c1ccccc1` as the molecule, how does the AC50 [1] read?
**A.** Its AC50 is 15.8 µM [falling, single point].

**Q.** Which AC50 [1] does the source give for `Cc1ccc(S(=O)(=O)NCC2CCC(C(=O)NCc3ccco3)CC2)cc1` (configuration not stated) here?
**A.** Its AC50 is 3.66 µM [falling, single point].

**Q.** What about the AC50 [2] of the same molecule?
**A.** The AC50 was 4.61 µM [rising, single point].

**Q.** Which AC50 [1] does the source give for `CC(C)CCN1CCN(Cc2cccc(-n3cccn3)c2)CC1CCO` (configuration not stated) here?
**A.** Its AC50 is 1.58 µM [rising, partial curve, poor fit].

**Q.** Which AC50 [1] does the source give for `COc1ccccc1NC(=O)CSc1nnc(C)n1CCc1ccccc1` here?
**A.** Its AC50 is 25.1 µM [falling, single point].

**Q.** With `CS(=O)(=O)N1CCC(C(=O)Nc2ccccc2Sc2ccccc2)CC1` as the molecule, how does the AC50 [1] read?
**A.** Its AC50 is 23.1 µM [rising, single point].

**Q.** With `C=CCN=Cc1sc2ccc(OCC)cc2c1O` as the molecule, how does the AC50 [1] read?
**A.** The AC50 was 3.26 µM [rising, single point].

**Q.** Which AC50 [1] does the source give for `Cc1ccc(NS(=O)(=O)c2sc3ccc(Cl)cc3c2C)cc1` here?
**A.** The AC50 was 14.1 µM [falling, partial curve, poor fit].

**Q.** Which AC50 [1] does the source give for `O=C(NCCCNCCCNC(=O)c1ccccn1)c1ccccn1` here?
**A.** The AC50 was 2.31 µM [rising, full curve, poor fit].

**Q.** Which AC50 [1] does the source give for `COC(=O)c1c(NC(=O)CS(=O)(=O)c2ccc(C)cc2)sc2c1CCCCC2` here?
**A.** The AC50 was 8.91 µM [rising, single point].

**Q.** With `CC1CCc2nc(NC(=O)c3cc(C(C)(C)C)nn3C)sc2C1` (configuration not stated) as the molecule, how does the AC50 [1] read?
**A.** The AC50 was 12.6 µM [rising, single point].

**Q.** For `NC(=O)c1c(NC(=O)COC(=O)c2ccc(O)c(Cl)c2)sc2c1CCCC2`, which AC50 [1] is on record?
**A.** Its AC50 is 2.91 µM [falling, single point].

**Q.** Which AC50 [1] does the source give for `COc1ccc(OC)c(-n2nnnc2SCC(=O)Nc2nc(C)c(C)s2)c1` here?
**A.** The AC50 was 14.6 µM [falling, single point].

**Q.** With `O=c1c2cccc3c2c(nn1CN1CCOCC1)-c1ccccc1-3` as the molecule, how does the AC50 [1] read?
**A.** Its AC50 is 25.1 µM [falling, partial curve, poor fit].

**Q.** Which AC50 [1] does the source give for `CN1CCN(Cc2oc(CO)cc(=O)c2O)CC1` here?
**A.** The AC50 was 0.103 µM [falling, full curve, poor fit].
